Experimental data published in doi:10.1101/488114.

Experiments:
[1] = target: T1, RAX1full-MBP-6H (Arabidopsis thaliana) (UniProt Q9FG68); assay: EMSA; settings: residues 1-329
T1 sequence (looked up): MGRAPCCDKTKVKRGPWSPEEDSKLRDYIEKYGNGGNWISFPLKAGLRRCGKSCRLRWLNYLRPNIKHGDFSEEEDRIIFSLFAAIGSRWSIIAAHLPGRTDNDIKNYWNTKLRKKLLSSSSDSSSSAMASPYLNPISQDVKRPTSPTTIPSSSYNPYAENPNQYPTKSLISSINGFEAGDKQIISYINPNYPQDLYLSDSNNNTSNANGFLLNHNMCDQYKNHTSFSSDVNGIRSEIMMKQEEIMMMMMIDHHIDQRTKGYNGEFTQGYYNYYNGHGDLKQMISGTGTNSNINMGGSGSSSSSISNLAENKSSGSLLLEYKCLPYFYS

[2] = target: T2, RAX1myb-6H (Arabidopsis thaliana) (UniProt Q9FG68); assay: EMSA
T2 sequence (looked up, limits assumed): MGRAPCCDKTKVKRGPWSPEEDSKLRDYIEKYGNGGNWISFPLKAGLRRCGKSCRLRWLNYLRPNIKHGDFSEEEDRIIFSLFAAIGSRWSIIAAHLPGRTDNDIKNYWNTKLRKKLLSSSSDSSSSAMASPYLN

| Sequence | binding result [1] | binding result [2] |
| --- | --- | --- |
| GTTGGGTACCTAACCTTCTAA (double strand) [RAX1bs] | binds | binds |
| GTTGGGTACCTAACTTTCTAA (double strand) [CLV1-bs1] | binds | binds |

For at least one entry, the source does not settle the construct or the ends of the probe. Tags and fusion partners may be left off the protein sequences shown.
